Data published in paper PMC12594589.
No constants are given. Whether binding was seen depends on the method and setting. In cells and extracts the contact can be indirect. Binding calls can cover weak binding; strength is not graded here.

Molecular target: Flag-YBX3#2 (YBX3 truncation mutant #2, cold shock domain deleted)
Experiment: co-IP; co-IP of TTC36 with FLAG-tagged full-length or truncated YBX3 constructs (#1, #2, #3); cells not given

binding: binds
B1: TTC36 (as used in the co-IP with YBX3 truncation mutants) (protein, UniProt A6NLP5 1-189)
chain: MGTPNDQAVLQAIFNPDTPFGDIVGLDLGEEAEKEEREEDEVFPQAQLEQSKALELQGVMAAEAGDLSTALERFGQAICLLPERASAYNNRAQARRLQGDVAGALEDLERAVELSGGRGRAARQSFVQRGLLARLQGRDDDARRDFERAARLGSPFARRQLVLLNPYAALCNRMLADMMGQLRRPRDSR
